In PubChem BioAssay (NCATS):
The inconclusive results got no clear call from the source; some entries with a clear call stand among them for comparison. A potency beside an inconclusive call is a rough fit, not a confirmed value. The source made the active and inactive calls. Calls follow the shape of the dose curve; as a rule, active = well fitted activation curve with a large enough effect; inconclusive = small, poorly fitted or top-dose-only effect, or another doubt; inactive = no such curve, though single readings can be large or run the other way.

These molecules were tested against Rap guanine nucleotide exchange factor 3 (Homo sapiens) (UniProt O95398) (assay: Counterscreen qHTS for agonist of cAMP-regulated guanine nucleotide exchange factor 3 (EPAC1) (AID 1645889; also: nearly all actives have a fitted effect of over 40% in size; as to activation: % of control where 0% means no effect)). Details: EPAC1 Rap1B-BODIPY-GDP exchange, fluorescence; activation: at 154 µM (top of the series) unless noted.
Summary of the method: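 Rap1B-BODIPY-GDP 250 nM + GDP 50 uM; cpds 7-pt, final 9.74 nM–152 uM (activator mode) or from 7.32 nM upwards (inhibitor mode); RT; FI 480/540 nm at 5 and 30 min, then ± cAMP, reread.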
Potency is read from the fitted curve at half-maximal effect.

| SMILES | Potency | activation |
| --- | --- | --- |
| CCOC(=O)C1=C(CSc2nc3ccccc3s2)NC(=O)NC1c1ccc(OC)cc1 (stereo not given) | inconclusive: 8.91 µM [activator, partial curve] |  |
| CCCCCn1c(C)c2c(OCC)cccc(=O)c2c1C | inconclusive: 0.178 µM [activator, partial curve] |  |
| COCCCn1c(=N)c(C(=O)NCc2cccnc2)cc2c(=O)n3cccc(C)c3nc21 |  | inactive: 8.1% |
| CCOC(=O)C1=C(C)OC(N)=C(C#N)C1c1ccc(OC)c(CSc2ccccn2)c1 (stereo not given) |  | inactive: 28.3% [at 30.8 µM] |
| COn1c(-c2ccc(Cl)cc2Cl)nc2ncccc21 |  | inactive: 0.281% |
| CN(Cc1ccnc2ccccc12)C(=O)C1CCC(=O)N(Cc2ccccc2F)C1 (stereo not given) |  | inconclusive: 51.7% [activator] |
| Cc1nnc(SCCn2c(N3CCC(Cc4ccccc4)CC3)nc3c2c(=O)[nH]c(=O)n3C)s1 |  | inactive: 26.4% |
| COc1cc(/C=C/C(=O)OCC(=O)Nc2oc(C)c3c(C)n[nH]c(=O)c23)ccc1OC(F)F |  | inconclusive: 50.2% [activator] |
| O=c1cc(CSc2ccccc2)nc(-c2ccncc2)[nH]1 |  | inconclusive: 30% [activator] |
| O=C1CC(=O)N(CCc2ccccc2)C(=O)N1CCc1ccccc1 | inconclusive: 0.708 µM [activator, partial curve, poor fit] |  |
| COc1ccccc1N(CC(=O)Nc1ccc(Br)cc1F)S(=O)(=O)c1cccs1 | inconclusive: 3.98 µM [activator, partial curve, poor fit] |  |
| C/C=C/C(=O)Nc1cccc(C2=NOC3(C2)C[C@@H](C(N)=O)N(C(=O)/C(C)=C/C)C3)c1 (stereo not given in full) |  | inactive: 11.2% |
| CC1CN(C(=O)CCC(=O)NCc2ccc(F)cc2)c2ccccc2S1 (stereo not given) |  | inactive: 31.5% [at 30.8 µM] |
| C=C(C)Cn1c(C)cc(C)c(S(=O)(=O)c2ccc(C)cc2)c1=O | inconclusive: 11.2 µM [activator, partial curve, poor fit] |  |
| COc1ccc(C(C#N)N2CCC(c3ccccc3)=N2)cc1OC (stereo not given) | inconclusive: 1.12 µM [activator, full curve, poor fit] |  |
| CC(C)C[C@H](NC(=O)[C@H](Cc1ccccc1)n1c(=O)[nH]c2ccccc2c1=O)C(=O)N1CCC(C(=O)O)CC1 |  | inconclusive: 28.7% [activator] |
| COCOCCn1cc(CN2CCS(=O)(=O)N(Cc3ccc(-c4ccc(C)cc4)cc3)C(CC(C)C)C2=O)nn1 (stereo not given) | inconclusive: 0.0079 µM [activator, full curve] |  |
| CCCN(C(=O)COC(=O)COc1c(C)cccc1C)c1c(N)n(Cc2ccccc2)c(=O)[nH]c1=O |  | inactive: 0.175% |
| CCOC(=O)c1ccccc1NC(=O)COC(=O)C(Cc1c[nH]c2ccccc12)NC(C)=O (stereo not given) | inconclusive: 0.01 µM [activator, full curve, poor fit] |  |
| COC(=O)c1nc2nc(C)cc(=O)n2[nH]1 | inconclusive: 0.0794 µM [activator, full curve, poor fit] |  |

| SMILES | Potency | activation |
| --- | --- | --- |
| Nc1ccn(C2C=CC(CO)O2)c(=O)n1 (stereo not given) |  | inconclusive: 25.7% [activator] |
| Cc1ccc(C2SCC(=O)N2Cc2ccccc2)cc1 (stereo not given) | inconclusive: 7.94 µM [activator, partial curve, poor fit] |  |
| O=C(O)Cc1ccc(C(=O)c2ccc(Cl)cc2Cl)s1 |  | inactive: 13.5% |
| CCCCCN(C(=O)CCC(=O)OCC(=O)N1CCC(C)CC1)c1c(N)n(CCCC)c(=O)[nH]c1=O |  | inactive: 20.3% |
| Cc1c(C(=O)NCc2ccc(F)cc2)sc(=O)n1Cc1ccccc1F | inconclusive: 22.4 µM [activator, partial curve, poor fit] |  |
| O=C1C(=Cc2ccccc2Cl)CCc2ccccc21 |  | inactive: 11.9% |
| Cc1cc(Nc2ccccc2)c2c([N+](=O)[O-])ccc(C)c2n1 |  | inconclusive: 44.9% [activator] |
| COc1ccc(-c2nc(C)ncc2-c2ccc(Cl)cc2)c(O)c1 |  | inconclusive: 47.1% [activator] |
| CCc1nc2ccccc2c(C(=O)NCc2ccccc2)c1C | inconclusive: 0.251 µM [activator, full curve, poor fit] |  |
| COc1cc(OC)c2c(-c3ccccc3)cc(=O)oc2c1C(CC(=O)N1CCOCC1)c1ccc2c(c1)OCO2 (stereo not given) | inconclusive: 0.01 µM [activator, full curve] |  |
| Cc1cc(C)cc(NC(=O)c2sc3nc(-c4ccccc4)cn3c2C)c1 |  | inconclusive: 50.1% [activator] |
| O=C(N/N=C/c1ccccc1O)c1ccc2c(c1)OCO2 |  | inactive: 0.888% |
| O=[N+]([O-])c1cc(/C=N/O)ccc1Oc1ccccc1Cl |  | inactive: 16.2% |
| COc1ccc(C2CN=NC23CCc2ccccc2C3=O)cc1 (stereo not given) | inconclusive: 100 µM [activator, single point] |  |
| COc1ccc(OC)c(/C=C2\SC(=S)N(NS(=O)(=O)c3ccccc3)C2=O)c1 |  | inactive: 4.06% |
| Cc1ccc([N+](=O)[O-])cc1NC(=O)c1ccc(-c2ccccc2)cc1 | inconclusive: 0.199 µM [activator, full curve, poor fit] |  |
| CCOC(=O)CC1C(=O)NCCN1C(=O)c1cccc(C(F)(F)F)c1 (stereo not given) |  | inconclusive: 38.5% [activator] |
| O=C(NCCN1CCCC1)C(c1ccccc1)c1ccccc1 | inconclusive: 0.794 µM [activator, full curve, poor fit] |  |
| CCc1nnc(NC(=O)c2ccc(-c3cccc(C(F)(F)F)c3)o2)s1 |  | inactive: 26.6% [at 30.8 µM] |
| O=C(Cc1ccccc1Cl)Nc1ccc(S(=O)(=O)N2CCOCC2)cc1 | inconclusive: 6.31 µM [activator, partial curve, poor fit] |  |

Pulled by compound from above (3):

| SMILES | Potency | activation |
| --- | --- | --- |
| COc1ccc(C(C#N)N2CCC(c3ccccc3)=N2)cc1OC (stereo not given) | inconclusive: 1.12 µM [activator, full curve, poor fit] |  |
| O=C(NCCN1CCCC1)C(c1ccccc1)c1ccccc1 | inconclusive: 0.794 µM [activator, full curve, poor fit] |  |
| CCOC(=O)CC1C(=O)NCCN1C(=O)c1cccc(C(F)(F)F)c1 (stereo not given) |  | inconclusive: 38.5% [activator] |
